Experimental data reported in PubChem BioAssay AID200 (DTP/NCI, 2004).
The list does not hold the whole screen: its compounds were picked by chemical class. Other doses and runs of a compound may be missing. T/C: endpoint of the treated group in % of that of the vehicle group. For survival time, the PubChem record calls one and a half times the control and up active, and a quarter to a half above the control has no call in these data; cut-offs in other NCI protocols can differ. Schedule codes are those of the source, taken here to give the interval after Q, in days (D) or hours (H), and the number of doses after X.

Test system: B6C3F1 mice, B16 melanoma ip, median survival T/C
Assay: NCI In Vivo Anticancer Drug Screen. Data for tumor model B16 Melanoma (intraperitoneal) in B6C3F1 mice
Settings: T/C endpoint: median survival time, schedule: Q01DX009 (ip), vehicle: saline, higher T/C = longer survival
Experimental: The antitumor activity of compounds was measured in mice bearing transplantable tumors. Survival or tumor size were measured and the results are expressed as the measurement made in the treated group (T) divided by the measurement made in the vehicle treated control group (C). The tumor model used in this assay is B16 Melanoma (intraperitoneal) in B6C3F1 mice

## CN(CCCl)CCCl
dose: 0.06 mg/kg/injection
  T/C: 109 % of control
dose: 0.12 mg/kg/injection
  T/C: 134 % of control
dose: 0.25 mg/kg/injection
  T/C: 154 % of control
dose: 0.5 mg/kg/injection
  T/C: 189 % of control
dose: 1.0 mg/kg/injection
  T/C: 227 % of control
